Data as given in article PMC6904456.
For at least one entry, the source does not settle the construct or the ends of the probe. At least one verdict rests on a figure or table, not on a statement of the authors.

Tested on: Thrombin (THR)
Assay: immunochemiluminescence on flat gold
Details: 1-200 nM thrombin, buffer; 5' BiotinTEG; Immobilization in 10 mM phosphate, 138 mM NaCl, 2.7 mM KCl, pH 7.4; commercial protein; single-stranded DNA

AGTCCGTGGTAGGGCAGGTTGGGGTGACT [TBA29 (biotin-TBA29 thrombin aptamer)]
binding result: binds
